For at least one compound, name, drawing or mass did not settle the structure.
System: A204 cells
Assay: Colony formation assay
Format: cell-based
Settings: treatment over 2 weeks, combination at high dose

## Cc1ccc(Nc2nccc(N(C)c3ccc4c(C)n(C)nc4c3)n2)cc1S(N)(=O)=O [Pazopanib, pazopanib]
  colony formation: resistant colony formation
